The results in this text go back to the supplement of paper PMC12889115.

The structures appear in SMILES notation. The list shows a part of the results. Values are raw readings; no control value is given beside them.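 Primary screen: polymyxin B was added at a level permeabilizing Salmonella outer membranes while sparing inner membranes. DMSO wells, both with and without polymyxin B, established maximum growth. Plate-to-plate variation meant each plate was ranked on its own, and the lowest-OD600 compounds were selected as hits.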

For this assay, the system named is Salmonella enterica serovar Typhimurium SL1344. Description: bacterial growth OD600 after 18 h with compound and polymyxin B; higher = more bacterial growth (less inhibition). As to conditions: 50 µM, Mueller-Hinton broth.

In the case of `COC(=O)CNC(=O)Cc1c2c(n(Cc3ccccc3F)c1C)CCCC2=O`, the “bacterial growth OD600” value (polymyxin B 1 µg/mL) came out at 1.12.
For `O=C(c1cscn1)N1CCC2(CCCN(CCCc3ccccc3)C2=O)C1` (stereo not given), for the setting “polymyxin B 1 µg/mL”, the “bacterial growth OD600” value turned out to be 0.911.
With `CC(C)(CNC(=O)c1cc(COc2ccc3c(c2)OCO3)[nH]n1)N1CCOCC1`, the “bacterial growth OD600” value (polymyxin B 1 µg/mL) came to 1.13.
For `Cc1nc(C(=O)NCc2c(C)ncc3c2CCN(C(=O)/C(F)=C/c2ccccc2)C3)cs1`, under “polymyxin B 0.75 µg/mL”, the “bacterial growth OD600” value turned out to be 0.003.
Regarding `Cc1cc(CNCC2(O)CCCN(Cc3ccccc3F)C2=O)no1` (stereo not given), the “bacterial growth OD600” value (polymyxin B 1 µg/mL) stood at 0.977.
For `CN(Cc1nccs1)C(=O)C1CCCN(c2nc(-c3ccccc3)nc3c2CCC3)C1` (stereo not given), the “bacterial growth OD600” value (polymyxin B 1 µg/mL) was 0.769.
In the case of `COc1cccc(OCC(O)CNC2CCN(c3ccc(C(=O)NC4CCCC4)cc3)CC2)c1` (stereo not given), under “polymyxin B 0.75 µg/mL”, the “bacterial growth OD600” value stood at 0.835.
For `CCCCNC(=O)N1CCC2(CCCN(Cc3cccc(C)c3)C2=O)C1` (stereo not given), for the setting “polymyxin B 1 µg/mL”, the “bacterial growth OD600” value amounted to 0.982.
`Cn1cc(CCC(=O)N2CCCC(CCc3ccc(F)c(F)c3)C2)cn1` (stereo not given): for the setting “polymyxin B 0.75 µg/mL”, the “bacterial growth OD600” value stood at 0.714.
The same measure, in the same setting: the same measure for `Cc1cc2nc(N3CCCN(Cc4c(C)nn(C)c4Cl)CC3)nc(C)c2cc1C`: 0.787.
Take `O=C(CSc1ncccn1)NC1CCCN(c2ccc(C(F)(F)F)cn2)C1` (stereo not given): the “bacterial growth OD600” value (polymyxin B 0.75 µg/mL) is 0.84.
On to `CCC1CN(Cc2ccc3ncccc3c2)Cc2cc(OC)ccc2O1` (stereo not given), for which the “bacterial growth OD600” value (polymyxin B 0.75 µg/mL) came out at 0.005.
Consider `CSc1ccccc1N1C(=O)CN(Cc2c(C)n(C)n(-c3ccccc3)c2=O)CC1C` (stereo not given), for which, for the setting “polymyxin B 0.75 µg/mL”, the “bacterial growth OD600” value came to 0.931.
As for `CCOC(=O)C1(Cc2ccccc2C(F)(F)F)CCN(C(=O)c2cc(C(C)=O)n[nH]2)CC1`, under “polymyxin B 1 µg/mL”, the “bacterial growth OD600” value is 0.664.
Turning to `COc1ccc(C(=O)NC2CC2)c(OC2CCN(C3CCSCC3)CC2)c1`, for the setting “polymyxin B 0.75 µg/mL”, the “bacterial growth OD600” value was 0.768.
On the same count and under the same terms, the same measure for `CCC(C)CNC1CCN(c2ccc(C(=O)NCc3ccc4c(c3)OCO4)cc2)CC1` (stereo not given): 0.728.
On the same count and under the same terms, the same measure for `CCOC(c1ccccc1)c1ccc2c(c1)CN(C(=O)c1noc3c1CCCC3)CCO2` (stereo not given): 0.009.
Take `OCCC1CN(Cc2ccc(F)cc2F)CCN1CC1CCCCC1` (stereo not given): the “bacterial growth OD600” value (polymyxin B 1 µg/mL) was determined as 0.694.
Consider `COC(C(=O)Nc1ccnn1C1CCN(CC2CCCCC2)CC1)c1ccccc1` (stereo not given), for which the “bacterial growth OD600” value (polymyxin B 0.75 µg/mL) came out at 0.929.
For `OC(Cc1ccccc1)c1ccc2c(c1)CN(Cc1c[nH]c3ccccc13)CCO2` (stereo not given), the “bacterial growth OD600” value (polymyxin B 0.75 µg/mL) came out at 0.737.
`CC(=O)Nc1cc(C(=O)N2CCOc3ccccc3C2)c2c(c1)nc(C)n2Cc1ccccc1`: where the note is “polymyxin B 0.75 µg/mL”, the “bacterial growth OD600” value turned out to be 0.824.
Turning to `Cc1cc(-c2nn(-c3ccccc3F)cc2CN(C)C2CCOC2)c(C)s1` (stereo not given), the “bacterial growth OD600” value (polymyxin B 1 µg/mL) is 0.605.
Take `COCC1CCN(C(=O)c2ccc3oc(Cc4ccc(Cl)cc4)nc3c2)C1` (stereo not given): the “bacterial growth OD600” value (polymyxin B 1 µg/mL) was 0.953.
Take `O=C(NCCC(c1ccccc1)c1ccccc1)C1CC12CCN(C(=O)CCn1cncn1)CC2` (stereo not given): the “bacterial growth OD600” value (polymyxin B 0.75 µg/mL) was 0.878.
Take `COc1cc(CC2(CCC(=O)NC(Cc3ccccc3)c3ccccc3)CCC(=O)N2)ccc1F` (stereo not given): the “bacterial growth OD600” value (polymyxin B 0.75 µg/mL) turned out to be 0.781.
For `COc1ccccc1C1CN(CCNC(=O)C(c2cccnc2)N2CCCC2)Cc2ccccc2O1` (stereo not given), the “bacterial growth OD600” value (polymyxin B 0.75 µg/mL) turned out to be 0.086.
Consider `Cc1nc2ccccc2n1Cc1cc(C(=O)N(C)C2CCOC2)n[nH]1` (stereo not given), for which, for the setting “polymyxin B 1 µg/mL”, the “bacterial growth OD600” value is 1.05.
The same measure, in the same setting: the same measure for `COCCC1CCCCN1C(=O)c1csc2nc(-c3ccccc3)cn12` (stereo not given): 1.12.
`O=C(Cc1ccc2c(c1)OCO2)NCCN1Cc2ccccc2OC(c2ccccc2F)C1` (stereo not given): under “polymyxin B 0.75 µg/mL”, the “bacterial growth OD600” value worked out at 0.447.
Regarding `C=CCC(O)(CC=C)CNC1CCN(c2ccc(NC(=O)CCc3ccccc3)cc2)CC1`, under “polymyxin B 0.75 µg/mL”, the “bacterial growth OD600” value came out at 0.823.
